This assay in a line: qHTS Assay for Lipid Storage Modulators in Drosophila S3 Cells.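 On cell number change: cells counted by Cell Tracker Red CMTPX staining in the red channel.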 To be noted: BODIPY lipid droplet fluorescence, 18-24 h; for cell number change: measured here: cell count max response, cells fed with added oleic acid. The gist of the method:
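Laser-scanning cytometry quantifies lipid droplet accumulation (500–530 nm total intensity; droplet/cell object ratio) in oleic acid-fed (400 uM added) Drosophila S3 cells treated with a concentration series. 20 uM Triacsin C defined 100% inhibition.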

The mark [1] stands for this setting: measured here: lipid fluorescence (Fed channel) AC50, cells fed with added oleic acid.
Setting [2] is: measured here: cell number channel AC50, cells fed with added oleic acid.

Cell number change and AC50 data for 36 compounds are collected here from PubChem BioAssay AID2685 (National Center for Advancing Translational Sciences (NCATS), 2010).

Structures are written as SMILES. The list shows a part of the results. These are further read-outs of the screen, such as a control signal, another cell line or another target. No call is given for them. The list favours compounds with an active or inconclusive main result. The note in brackets gives the kind of curve behind each potency; many fits are weak.

Regarding `CC(C)C[C@@H](C(=O)O)N(Cc1cccc(CN([C@@H](CC(C)C)C(=O)O)S(C)(=O)=O)c1)S(C)(=O)=O`, the cell number change is -2.69%. For the same compound, the AC50 under setting [1] is 6.51 µM [rising, partial curve].

With `Cc1[nH]nc(SCC(=O)N2CCCCC2)c1[N+](=O)[O-]`, the cell number change worked out at 22.1%. Moreover, the AC50 under setting [1] was 6.51 µM [falling, partial curve].

Take `Cc1[nH]c2ccc(C(=O)NCC(C)(C)N3CCOCC3)cc2c1C`: under setting [1], the AC50 was 1.3 µM [rising, partial curve].

As for `CCOC(=O)C(NC(=O)CC)(Nc1ccc(S(=O)(=O)Nc2ncccn2)cc1)C(F)(F)F` (stereo not given), the cell number change was -47.7%. Also, under setting [2], the AC50 was 2.06 µM [falling, partial curve, poor fit]. Moreover, the concentration at half-maximal activity (AC50) under setting [1] was 4.61 µM [falling, full curve].

As for `CC1C2CC(C(S(=O)(=O)N3CCOCC3)C2=O)C1(C)C` (stereo not given), the cell number change is -0.817%. Also, under setting [1], the AC50 was 6.51 µM [falling, single point].

As for `O=C(c1cc(-c2ccc(O)cc2)on1)N1CCOCC1`, the cell number change came to 14.3%. For the same compound, under setting [1], the concentration at half-maximal activity (AC50) was 2.91 µM [falling, single point].

Take `Cc1ccc(C(=O)Nc2cccc(C(=O)NCc3ccco3)c2)cc1`: the cell number change is 10.9%.

With `COc1ccc(Cl)cc1NC(=O)c1[nH]nc(OC)c1[N+](=O)[O-]`, the cell number change is -29.8%.

With `CCOc1ccc(S(=O)(=O)Nc2ccc(C(=O)NCc3ccncc3)cc2)cc1`, the cell number change was -10.6%. Moreover, the AC50 under setting [1] was 0.184 µM [falling, partial curve, poor fit].

As for `COc1ccc(C2=CC(c3ccco3)n3ncnc3N2)cc1` (stereo not given), the cell number change is 54%. In addition, the AC50 under setting [2] is 6.51 µM [rising, partial curve].

As to `O=C1CCC(C(=O)O)N1` (stereo not given), the cell number change is 3.42%. Moreover, the AC50 under setting [1] was 29.1 µM [rising, single point].

Consider `COC(=O)CCCC(=O)N1CCC(n2nccc2NC(=O)CCOc2ccccc2)CC1`, for which the cell number change is -16.2%. The AC50 under setting [1] is 4.61 µM [falling, partial curve].

In the case of `O=C(NC(=S)Nc1ccc(S(=O)(=O)N2CCCC2)cc1)c1cccs1`, the cell number change is -22%. In addition, the AC50 under setting [2] was 0.0058 µM [falling, full curve, poor fit].

Take `C/C(=N/NC(=O)c1cc(O)c(O)c(O)c1)c1ccc([N+](=O)[O-])cc1`: the cell number change is 6.85%.

On to `Cc1cc(C)cc(NCC(=O)Nc2c(C)cccc2C)c1`, for which the cell number change amounted to 85.3%. Also, the AC50 under setting [2] was 9.2 µM [rising, partial curve]. Moreover, the AC50 under setting [1] is 9.2 µM [rising, partial curve].

With `Cc1ccccc1C(OCCN(C)C)c1ccccc1` (stereo not given), the cell number change is -8.63%.

For `Nc1c(C(=O)Nc2ccc3c(c2)OCCO3)nnn1Cc1ccccc1`, the cell number change was -8.87%.

Regarding `COc1ccccc1NC(=O)c1sc(NC(=O)c2ccco2)c(C#N)c1C`, the AC50 is 2.06 µM [rising, partial curve] under setting [2] and 4.11 µM [rising, partial curve] under setting [1].

Consider `Clc1ccc(Cn2ncc3c(NCc4ccccc4)ncnc32)cc1`, for which the cell number change is -31.3%. Also, under setting [2], the AC50 was 29.1 µM [falling, single point].

Regarding `CCn1c(=NC(=O)CSCC(=O)Nc2nccs2)sc2ccccc21`, the cell number change was determined as 46.2%. Under setting [2], the half-maximal activity concentration (AC50) was 0.411 µM [rising, partial curve]. For the same compound, under setting [1], the AC50 is 2.91 µM [rising, partial curve].

On to `OCC1(Cc2ccc(F)cc2F)CCCN(Cc2ccc(Cl)cc2)C1` (stereo not given), for which the cell number change was -48%. Also, the AC50 under setting [2] is 6.51 µM [falling, partial curve].

Take `Cc1nc2cc(NC(=O)NCc3ccc4c(c3)OCO4)ccc2o1`: the cell number change is 65.5%. The AC50 under setting [2] was 1.16 µM [rising, full curve]. For the same compound, the half-maximal activity concentration (AC50) under setting [1] was 2.31 µM [rising, full curve].

In the case of `CCOC(=O)Cn1c(=NC(=O)c2cc(-c3cccs3)nc3ccccc23)sc2cc(S(N)(=O)=O)ccc21`, the cell number change was -11.7%. For the same compound, the AC50 under setting [1] was 0.164 µM [rising, full curve, poor fit].

For `COc1ccc(N2CCN(C(=O)C(=O)c3cn(CC(=O)N4CCOCC4)c4ccccc34)CC2)cc1`, the cell number change was 67.6%. Further, the AC50 under setting [2] was 29.1 µM [rising, single point]. Besides, the concentration at half-maximal activity (AC50) under setting [1] is 7.31 µM [rising, partial curve].

As to `CCCN1C(=O)c2cc(C(=O)O)ccc2C1O` (stereo not given), the cell number change was -36.8%. Further, the AC50 under setting [2] was 0.259 µM [falling, full curve, poor fit]. Moreover, the AC50 under setting [1] was 0.184 µM [falling, full curve, poor fit].

On to `COc1cccc(CNC(=O)[C@H](CCSC)NC(=O)N2CCn3c2nc2ccccc23)c1`, for which the cell number change was -7.66%. Moreover, the AC50 under setting [1] was 20.6 µM [falling, partial curve].

For `Cc1cc(Cl)c(S(=O)(=O)NC2CCCCC2)cc1OCC(=O)Nc1nncs1`, the cell number change is -32.7%. The half-maximal activity concentration (AC50) under setting [2] is 20.6 µM [falling, single point]. In addition, under setting [1], the AC50 was 23.1 µM [falling, partial curve].

Turning to `Cc1cc(SCC(=O)OC/C(O)=C(\C#N)c2nc3ccccc3[nH]2)c(C)cc1Br`, the cell number change is -12.6%. Besides, under setting [1], the half-maximal activity concentration (AC50) was 29.1 µM [falling, single point].

In the case of `Cc1cccc(-n2cnc(C(=O)N3CCN(C)CC3)c2)n1`, the cell number change was 36.9%.

Regarding `O=C(CCN1C(=O)/C(=C/c2ccc(Cl)cc2)SC1=S)Nc1cccc(C(=O)O)c1`, the cell number change is 2.76%. Besides, the AC50 under setting [1] was 0.00411 µM [falling, full curve, poor fit].

Turning to `O=C1c2ccc(Oc3ccc4c(c3)C(=O)N(CCCO)C4=O)cc2C(=O)N1CCCO`, the cell number change is -4.45%. Further, the AC50 under setting [1] was 1.46 µM [falling, partial curve].

As to `CN1C(=O)N(C)C2(c3ccccc3)NC(=O)NC12c1ccccc1` (stereo not given), the cell number change was -50.4%. The half-maximal activity concentration (AC50) under setting [2] is 1.16 µM [falling, full curve]. The AC50 under setting [1] was 1.16 µM [falling, full curve].

Regarding `CN(C)c1ccc(C2C3C(=O)NC(=O)C3ON2c2ccc(Cl)cc2)cc1` (stereo not given), the cell number change came out at 34.2%. Moreover, the AC50 under setting [2] is 4.61 µM [rising, single point]. Besides, the AC50 under setting [1] was 6.51 µM [rising, single point].

For the compound `O=C(Nc1nc2ccccc2s1)c1ccccc1[N+](=O)[O-]`, the cell number change is -16.2%. In addition, the AC50 under setting [1] was 23.1 µM [rising, single point].

In the case of `Cc1ccc2c(cnn2C(=O)CCC(=O)NCc2cccc(Cl)c2)c1`, the cell number change came out at 7.49%. The AC50 under setting [2] was 0.731 µM [rising, single point]. Further, the AC50 under setting [1] was 6.51 µM [rising, single point].

Consider `COCc1cc(=O)[nH]c(-c2ccc(C(F)(F)F)cc2)n1`, for which the cell number change is -14%. The AC50 under setting [1] is 0.13 µM [falling, full curve, poor fit].
